# Assay results reported in PubChem BioAssay (NCATS).
# Values joined by “and” are separate entries in the source; they are usually repeats but may differ in a detail not shown here. Equal entries are not always repeated. The list shows a part of the results. These are further read-outs of the screen, such as a control signal, another cell line or another target. No call is given for them. Compounds called inactive in the main read-out are mostly missing here. Words in brackets tell the shape of the fitted curve; partial curves, single points and poor fits give uncertain potencies.
# Assay: qHTS for identification of novel therapeutic agents for treatment of microphthalmiaassociated transcription factor (MiT) renal cell carcinoma (RCC) (AID 1963991)
# Conditions: CellTiter-Glo, 48 h; for z-score: stronger effect = lower value
# How it was run: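 UOK109/UOK124/UOK145 (TFE3 fusions, three partners); 500 cells/well; MIPE v4.0, 1912 cpds, 11 conc.; 48 h, 37 C; CellTiter-Glo, 15 min RT; lum. Norm.: DMSO 100%, empty 0%.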
# [1] = TFE3-RCC viability, measured here: UOK124 cell viability
# [2] = TFE3-RCC viability, measured here: UOK145 cell viability
# [3] = TFE3-RCC UOK109 viability, measured here: UOK109 Z-AUC
# [4] = TFE3-RCC viability, measured here: UOK124 Z-AUC
# [5] = TFE3-RCC viability, measured here: UOK145 Z-AUC
compound,measurement,setting,value
CC(=O)N1CCN(c2ccc(OCc3nn(C)c(C)c3-c3cccc4c(CCCOc5cccc6ccccc56)c(C(=O)O)n(Cc5cccnc5)c34)cc2)CC1,AC50,[1],"4.18 µM [falling, partial curve]"
same,AC50,[2],"5.26 µM [falling, partial curve]"
OCCn1cc(-c2ccc3c(c2)CCC3=NO)c(-c2ccncc2)n1,z-score,[3],1.03
same,z-score,[4],0.714
same,z-score,[5],-0.122
COc1ccc([C@@H]2CC(=O)c3c(O)cc(O[C@@H]4O[C@H](CO[C@@H]5O[C@@H](C)[C@H](O)[C@@H](O)[C@@H]5O)[C@@H](O)[C@H](O)[C@@H]4O)cc3O2)cc1O,z-score,[3],1.45 and -0.216
same,z-score,[4],0.0773 and 0.459
same,z-score,[5],0.756 and 1.24
COc1cc(=C2C=c3ccccc3=N2)[nH]c1=Cc1[nH]c(C)cc1C,AC50,[1],"2.96 µM [falling, partial curve]"
same,AC50,[2],"5.9 µM [falling, partial curve]"
N#C[C@H]1C[C@H]2C[C@@H]2N1C(=O)[C@@H](N)C12CC3CC(CC(O)(C3)C1)C2,z-score,[3],0.491
same,z-score,[4],0.424
same,z-score,[5],0.678
CCN(CC)CCNC(=O)c1c(C)[nH]c(C=C2C(=O)Nc3ccc(F)cc32)c1C,AC50,[1],"4.81 µM [falling, full curve]"
same,AC50,[2],"8.55 µM [falling, full curve]"
CO[C@H]1C=CC=C(C)C(=O)NC2=CC(=O)C(NCCN(C)C)=C(C[C@@H](C)C[C@H](OC)[C@@H](O)[C@@H](C)C=C(C)[C@@H]1OC(N)=O)C2=O,AC50,[1],"1.32 µM [falling, full curve]"
same,AC50,[2],"1.66 µM [falling, partial curve]"

# No new results follow: entries from further up.
compound,measurement,setting,value
COc1cc(=C2C=c3ccccc3=N2)[nH]c1=Cc1[nH]c(C)cc1C,AC50,[2],"5.9 µM [falling, partial curve]"
N#C[C@H]1C[C@H]2C[C@@H]2N1C(=O)[C@@H](N)C12CC3CC(CC(O)(C3)C1)C2,z-score,[3],0.491
